The other results are listed elsewhere or left out.
Columns and labels:
Experiment in all cases: log2 fold change, soluble protein after heating vs DMSO (PISA); higher = thermal stabilisation; K562 cells, 10 uM, 30 min; active = over 0.2 and 3.5 SD of the protein, either way, in both replicates (recomputed)
[1] = compound: CC1=C(C=C(C=C1)NC(=O)C2=CC(=CC=C2)C(C)(C)C#N)NC3=CC4=C(C=C3)N=CN(C4=O)C
In short: (§1)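 K562 cells at 2×10^6 cells/mL were given 10 μM compound for 30 min. Aliquots then went through 3 min of heating across 48°C-58°C, were pooled, and were extracted in PBS with 0.5% NP-40 at 4°C, and the supernatant after 21,000xg for 90 min was quantified by TMTpro 16plex LC-MS/MS with channel sums equalised. Thermal stability relative to control samples, from duplicates, is given as log2 fold change.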

Sequences of proteins named here, by UniProt entry; tags and fusion partners are left off. A change or cut given only in a name is not applied to a line headed by its entry.
UniProt Q96AE4: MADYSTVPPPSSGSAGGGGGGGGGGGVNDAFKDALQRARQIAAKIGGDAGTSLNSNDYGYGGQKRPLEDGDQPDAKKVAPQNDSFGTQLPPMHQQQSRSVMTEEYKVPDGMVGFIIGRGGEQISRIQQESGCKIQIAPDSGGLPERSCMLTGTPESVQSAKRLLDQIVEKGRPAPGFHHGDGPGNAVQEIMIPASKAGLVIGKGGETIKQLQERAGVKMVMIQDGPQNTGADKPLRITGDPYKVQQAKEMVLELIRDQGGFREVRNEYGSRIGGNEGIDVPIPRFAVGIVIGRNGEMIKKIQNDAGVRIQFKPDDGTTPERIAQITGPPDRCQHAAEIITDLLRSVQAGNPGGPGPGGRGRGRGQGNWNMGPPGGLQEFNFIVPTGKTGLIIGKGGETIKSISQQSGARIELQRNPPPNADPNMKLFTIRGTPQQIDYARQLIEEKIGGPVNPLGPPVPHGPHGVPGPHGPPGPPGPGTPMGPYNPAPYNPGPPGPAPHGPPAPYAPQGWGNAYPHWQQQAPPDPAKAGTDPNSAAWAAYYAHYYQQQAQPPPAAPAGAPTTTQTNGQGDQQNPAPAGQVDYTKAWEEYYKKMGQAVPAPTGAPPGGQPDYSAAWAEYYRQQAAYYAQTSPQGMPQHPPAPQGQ
UniProt Q16595: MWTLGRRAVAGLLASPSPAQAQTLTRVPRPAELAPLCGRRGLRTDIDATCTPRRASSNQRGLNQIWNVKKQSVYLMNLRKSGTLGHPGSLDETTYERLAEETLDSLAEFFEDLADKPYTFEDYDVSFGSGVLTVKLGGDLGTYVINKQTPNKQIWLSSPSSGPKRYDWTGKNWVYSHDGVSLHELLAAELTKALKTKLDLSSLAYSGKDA
UniProt Q9UQC2, whole entry, looked up: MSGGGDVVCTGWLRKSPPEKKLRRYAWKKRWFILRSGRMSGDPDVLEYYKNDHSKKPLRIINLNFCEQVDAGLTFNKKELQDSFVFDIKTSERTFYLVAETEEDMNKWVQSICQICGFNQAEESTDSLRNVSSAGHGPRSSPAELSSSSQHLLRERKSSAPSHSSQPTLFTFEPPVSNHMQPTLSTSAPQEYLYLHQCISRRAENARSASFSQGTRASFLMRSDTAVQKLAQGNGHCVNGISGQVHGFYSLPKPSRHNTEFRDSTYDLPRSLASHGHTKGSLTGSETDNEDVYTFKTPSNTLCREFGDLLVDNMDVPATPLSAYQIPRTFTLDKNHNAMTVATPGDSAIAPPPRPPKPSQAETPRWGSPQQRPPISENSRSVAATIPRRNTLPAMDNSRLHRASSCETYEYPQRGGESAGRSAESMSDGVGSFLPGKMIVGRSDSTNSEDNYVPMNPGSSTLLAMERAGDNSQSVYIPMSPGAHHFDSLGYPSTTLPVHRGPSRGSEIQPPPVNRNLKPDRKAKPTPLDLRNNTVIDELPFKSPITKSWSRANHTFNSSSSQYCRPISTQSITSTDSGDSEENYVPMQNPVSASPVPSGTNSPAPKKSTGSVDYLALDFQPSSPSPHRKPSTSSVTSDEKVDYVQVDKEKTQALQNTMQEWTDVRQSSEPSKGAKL
UniProt Q8NCW6: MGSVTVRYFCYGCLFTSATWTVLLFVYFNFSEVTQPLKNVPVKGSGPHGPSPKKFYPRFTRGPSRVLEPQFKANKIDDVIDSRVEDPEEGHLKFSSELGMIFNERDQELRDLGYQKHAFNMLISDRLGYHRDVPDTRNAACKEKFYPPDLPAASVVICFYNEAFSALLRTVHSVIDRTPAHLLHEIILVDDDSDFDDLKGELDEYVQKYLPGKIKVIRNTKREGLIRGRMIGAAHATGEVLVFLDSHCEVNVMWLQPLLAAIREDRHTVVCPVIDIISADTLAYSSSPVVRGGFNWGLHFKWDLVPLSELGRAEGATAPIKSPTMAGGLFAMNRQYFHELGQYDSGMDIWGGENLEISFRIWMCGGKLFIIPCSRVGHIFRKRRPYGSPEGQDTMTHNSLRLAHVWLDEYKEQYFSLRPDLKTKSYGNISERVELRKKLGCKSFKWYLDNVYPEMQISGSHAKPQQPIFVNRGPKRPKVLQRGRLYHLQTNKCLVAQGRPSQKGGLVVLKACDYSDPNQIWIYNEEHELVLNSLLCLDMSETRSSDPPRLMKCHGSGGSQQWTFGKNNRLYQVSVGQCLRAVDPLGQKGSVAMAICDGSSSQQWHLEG
UniProt P07902: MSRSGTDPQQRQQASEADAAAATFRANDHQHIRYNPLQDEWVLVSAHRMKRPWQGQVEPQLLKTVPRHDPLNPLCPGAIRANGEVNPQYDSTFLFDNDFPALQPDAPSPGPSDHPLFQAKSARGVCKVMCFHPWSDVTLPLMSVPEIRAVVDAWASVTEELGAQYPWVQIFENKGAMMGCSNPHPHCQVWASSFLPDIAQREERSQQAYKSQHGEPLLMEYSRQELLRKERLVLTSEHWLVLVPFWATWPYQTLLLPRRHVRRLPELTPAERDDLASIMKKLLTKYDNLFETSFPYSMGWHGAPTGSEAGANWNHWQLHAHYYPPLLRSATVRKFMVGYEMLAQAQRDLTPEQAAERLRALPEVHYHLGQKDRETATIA
UniProt Q8WXI9: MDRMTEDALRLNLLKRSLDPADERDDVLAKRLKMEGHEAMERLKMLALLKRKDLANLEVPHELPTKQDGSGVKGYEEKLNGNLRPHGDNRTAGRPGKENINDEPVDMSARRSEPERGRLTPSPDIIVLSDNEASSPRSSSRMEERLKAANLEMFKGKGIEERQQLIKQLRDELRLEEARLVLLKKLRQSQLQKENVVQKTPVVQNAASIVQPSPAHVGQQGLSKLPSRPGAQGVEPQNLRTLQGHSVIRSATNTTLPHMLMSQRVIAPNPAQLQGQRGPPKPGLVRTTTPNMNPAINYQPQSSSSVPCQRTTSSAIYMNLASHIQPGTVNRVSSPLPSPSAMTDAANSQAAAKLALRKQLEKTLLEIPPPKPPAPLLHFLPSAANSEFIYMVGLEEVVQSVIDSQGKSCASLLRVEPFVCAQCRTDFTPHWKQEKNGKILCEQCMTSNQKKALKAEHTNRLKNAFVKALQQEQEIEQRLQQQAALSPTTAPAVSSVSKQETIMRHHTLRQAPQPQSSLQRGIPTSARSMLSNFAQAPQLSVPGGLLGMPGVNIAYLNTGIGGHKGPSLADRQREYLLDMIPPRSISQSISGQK
UniProt Q13480: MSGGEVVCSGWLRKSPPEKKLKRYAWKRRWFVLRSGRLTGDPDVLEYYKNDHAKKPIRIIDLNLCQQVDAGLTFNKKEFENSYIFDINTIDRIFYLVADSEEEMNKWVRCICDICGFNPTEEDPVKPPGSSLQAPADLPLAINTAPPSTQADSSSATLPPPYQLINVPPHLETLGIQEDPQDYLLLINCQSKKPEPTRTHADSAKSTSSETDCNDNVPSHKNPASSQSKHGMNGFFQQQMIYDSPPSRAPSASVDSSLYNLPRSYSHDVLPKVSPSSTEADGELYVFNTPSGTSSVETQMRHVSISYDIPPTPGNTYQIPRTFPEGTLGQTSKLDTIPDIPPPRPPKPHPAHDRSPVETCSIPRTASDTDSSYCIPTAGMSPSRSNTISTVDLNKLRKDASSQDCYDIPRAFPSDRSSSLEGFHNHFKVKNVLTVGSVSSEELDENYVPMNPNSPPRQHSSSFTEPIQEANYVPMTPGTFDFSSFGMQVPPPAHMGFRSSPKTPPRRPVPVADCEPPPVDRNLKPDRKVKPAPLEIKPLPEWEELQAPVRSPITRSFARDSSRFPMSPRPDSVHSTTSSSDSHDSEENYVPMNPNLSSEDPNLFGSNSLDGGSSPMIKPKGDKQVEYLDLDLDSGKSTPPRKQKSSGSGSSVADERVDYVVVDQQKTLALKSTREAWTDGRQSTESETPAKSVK
UniProt Q9UJY4: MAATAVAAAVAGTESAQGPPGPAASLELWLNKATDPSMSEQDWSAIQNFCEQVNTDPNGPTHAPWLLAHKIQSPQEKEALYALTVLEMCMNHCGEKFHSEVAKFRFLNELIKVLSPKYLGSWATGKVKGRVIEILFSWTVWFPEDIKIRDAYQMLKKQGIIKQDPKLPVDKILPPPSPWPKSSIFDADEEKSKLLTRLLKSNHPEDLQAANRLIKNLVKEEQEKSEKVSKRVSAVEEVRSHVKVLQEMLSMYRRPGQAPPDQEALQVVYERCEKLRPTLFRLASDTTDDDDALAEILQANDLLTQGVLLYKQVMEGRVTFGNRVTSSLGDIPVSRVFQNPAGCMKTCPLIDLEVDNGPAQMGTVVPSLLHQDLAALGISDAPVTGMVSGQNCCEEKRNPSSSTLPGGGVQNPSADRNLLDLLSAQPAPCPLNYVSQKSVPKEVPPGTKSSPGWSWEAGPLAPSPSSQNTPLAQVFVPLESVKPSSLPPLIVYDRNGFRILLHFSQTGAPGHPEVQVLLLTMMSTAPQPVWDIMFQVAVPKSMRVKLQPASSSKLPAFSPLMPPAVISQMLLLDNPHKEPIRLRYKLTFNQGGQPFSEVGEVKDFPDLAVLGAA
UniProt Q9H3C7, whole entry, looked up: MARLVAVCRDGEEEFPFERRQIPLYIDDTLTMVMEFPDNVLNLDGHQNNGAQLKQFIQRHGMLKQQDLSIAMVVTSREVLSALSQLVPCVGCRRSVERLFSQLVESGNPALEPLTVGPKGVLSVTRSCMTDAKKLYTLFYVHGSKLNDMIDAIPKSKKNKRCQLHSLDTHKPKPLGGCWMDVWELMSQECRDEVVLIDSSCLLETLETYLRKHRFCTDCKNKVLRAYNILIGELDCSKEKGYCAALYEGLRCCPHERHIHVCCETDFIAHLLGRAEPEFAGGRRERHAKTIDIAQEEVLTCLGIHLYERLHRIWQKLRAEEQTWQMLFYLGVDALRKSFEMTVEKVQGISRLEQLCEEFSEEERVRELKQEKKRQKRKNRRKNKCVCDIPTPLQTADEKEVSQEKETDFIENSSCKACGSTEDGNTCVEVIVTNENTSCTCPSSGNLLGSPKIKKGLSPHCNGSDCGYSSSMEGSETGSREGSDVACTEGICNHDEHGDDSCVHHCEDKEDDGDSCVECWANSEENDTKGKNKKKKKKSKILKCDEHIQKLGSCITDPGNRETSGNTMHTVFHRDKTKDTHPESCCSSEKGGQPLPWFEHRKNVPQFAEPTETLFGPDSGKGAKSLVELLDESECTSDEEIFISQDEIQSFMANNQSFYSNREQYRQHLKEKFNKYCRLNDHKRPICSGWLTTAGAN
UniProt Q05932: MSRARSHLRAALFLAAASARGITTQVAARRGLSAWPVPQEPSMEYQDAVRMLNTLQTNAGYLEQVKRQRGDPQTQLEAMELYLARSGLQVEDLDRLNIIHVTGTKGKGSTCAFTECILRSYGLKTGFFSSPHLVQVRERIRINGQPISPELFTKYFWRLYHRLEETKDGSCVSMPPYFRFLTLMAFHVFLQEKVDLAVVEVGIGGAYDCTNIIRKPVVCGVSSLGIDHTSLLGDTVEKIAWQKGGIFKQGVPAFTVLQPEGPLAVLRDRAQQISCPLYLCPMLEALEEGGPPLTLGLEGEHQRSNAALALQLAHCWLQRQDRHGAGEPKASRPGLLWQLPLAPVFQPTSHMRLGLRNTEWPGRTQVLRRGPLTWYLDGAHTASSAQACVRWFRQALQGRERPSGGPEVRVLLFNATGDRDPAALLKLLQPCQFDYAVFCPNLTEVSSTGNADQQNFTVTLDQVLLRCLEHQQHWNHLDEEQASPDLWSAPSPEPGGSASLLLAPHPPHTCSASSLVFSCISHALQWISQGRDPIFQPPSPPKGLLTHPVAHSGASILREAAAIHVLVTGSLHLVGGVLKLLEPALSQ
UniProt P31150: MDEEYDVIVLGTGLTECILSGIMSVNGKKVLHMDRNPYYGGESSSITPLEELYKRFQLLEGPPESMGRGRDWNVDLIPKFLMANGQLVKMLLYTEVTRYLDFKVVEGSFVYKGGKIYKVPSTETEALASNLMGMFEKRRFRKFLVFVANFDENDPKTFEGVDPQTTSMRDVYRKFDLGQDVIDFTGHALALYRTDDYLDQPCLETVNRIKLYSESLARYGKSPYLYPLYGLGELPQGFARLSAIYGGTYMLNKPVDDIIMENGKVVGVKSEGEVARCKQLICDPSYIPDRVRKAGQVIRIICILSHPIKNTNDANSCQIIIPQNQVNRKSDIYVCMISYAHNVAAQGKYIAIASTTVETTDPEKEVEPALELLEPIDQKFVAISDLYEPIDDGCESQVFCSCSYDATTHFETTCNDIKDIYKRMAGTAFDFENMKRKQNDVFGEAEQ

[2] = compound: CC1=C(C=C(C=C1)NC(=O)C2=CC(=CC=C2)N(C)C)NC(=O)C3=CC=C(C=C3)O
In short: as §1

[3] = compound: CC1=CC=C(C=C1)SC2=C3C=C(SC3=CN=C2)C(=O)N
In short: as §1

[4] = compound: CC1=NC(=CC=C1)C2=C(N=C(N2)C(C)(C)C)C3=CC4=NC=CN=C4C=C3
In short: as §1

Nexturastat A = compound: CCCCN(Cc1ccc(C(=O)NO)cc1)C(=O)Nc1ccccc1 [Nexturastat A]
In short: as §1

vemurafenib = compound: CCCS(=O)(=O)Nc1ccc(F)c(C(=O)c2c[nH]c3ncc(-c4ccc(Cl)cc4)cc23)c1F [vemurafenib]
In short: as §1

[5] = compound: CCCS(=O)(=O)Nc1ccc(F)c(C(=O)c2c[nH]c3ncc(Cl)cc23)c1F
In short: as §1

[6] = compound: CCCc1cc(C)[nH]c(=O)c1CNC(=O)c1cc(-c2ccnc(N3CCN(C)CC3)c2)cc2c1cnn2C(C)C
In short: as §1

givinostat = compound: CCN(CC)Cc1ccc2cc(COC(=O)Nc3ccc(C(=O)NO)cc3)ccc2c1 [givinostat]
In short: as §1

barasertib = compound: CCN(CCCOc1ccc2c(Nc3cc(CC(=O)Nc4cccc(F)c4)[nH]n3)ncnc2c1)CCOP(=O)(O)O [barasertib]
In short: as §1

Measured: log2 fold change

FTO (UniProt Q9C0B1)
inactive: [1] 0.018 | [2] -0.018 | [3] 0.008 | [4] 0.039 | Nexturastat A -0.04 | vemurafenib -0.013 | [5] -0.01 | [6] -0.027 | givinostat -0.122 | barasertib -0.001

FUBP1 (UniProt Q96AE4)
inactive: [1] 0.105 | [2] -0.148 | [3] -0.036 | [4] 0.057 | Nexturastat A 0.011 | vemurafenib 0.078 | [5] -0.072 | [6] 0.07 | givinostat 0.086 | barasertib 0.017

FXN (UniProt Q16595)
inactive: [1] -0.043 | [2] -0.136 | [3] 0.073 | [4] 0.025 | Nexturastat A 0.006 | vemurafenib 0.135 | [5] 0.049 | [6] 0.036 | givinostat -0.033 | barasertib 0.018

GAB2 (UniProt Q9UQC2)
inactive: [1] -0.053 | [2] -0.21 | [3] 0.022 | [4] 0.077 | Nexturastat A 0.075 | vemurafenib -0.071 | [5] -0.349 | [6] 0.099 | givinostat 0.101

Two consecutive entries out of the list so far, for reference:
FUBP1 (UniProt Q96AE4)
inactive: [1] 0.105 | [2] -0.148 | [3] -0.036 | [4] 0.057 | Nexturastat A 0.011 | vemurafenib 0.078 | [5] -0.072 | [6] 0.07 | givinostat 0.086 | barasertib 0.017

FXN (UniProt Q16595)
inactive: [1] -0.043 | [2] -0.136 | [3] 0.073 | [4] 0.025 | Nexturastat A 0.006 | vemurafenib 0.135 | [5] 0.049 | [6] 0.036 | givinostat -0.033 | barasertib 0.018

Further results follow:

GAMT (UniProt Q14353)
inactive: [1] -0.019 | [2] -0.016 | [3] -0.296 | [4] 0.143 | Nexturastat A -0.022 | vemurafenib 0.002 | [5] 0.139 | [6] 0.031 | givinostat 0.032 | barasertib 0.044

GALNT11 (UniProt Q8NCW6)
inactive: [1] 0.011 | [2] 0.049 | [3] -0.024 | [4] -0.041 | Nexturastat A -0.032 | vemurafenib 0.009 | [5] -0.035 | [6] -0.002 | givinostat 0.027 | barasertib 0.118

GALT (UniProt P07902)
inactive: [1] -0.007 | [2] 0.097 | [3] -0.006 | [4] -0.023 | Nexturastat A -0.035 | vemurafenib 0.009 | [5] 0.036 | [6] -0.081 | givinostat 0.008 | barasertib 0.056

GATAD2B (UniProt Q8WXI9)
inactive: [1] 0.072 | [2] -0.087 | [3] 0.077 | [4] 0.006 | Nexturastat A -0.017 | vemurafenib 0.013 | [5] 0.011 | [6] 0.016 | givinostat 0.036

FSCN1 (UniProt Q16658)
inactive: [1] 0.065 | [2] 0.011 | [3] 0.036 | [4] 0.074 | Nexturastat A -0.059 | vemurafenib 0.054 | [5] 0.065 | [6] 0.014 | givinostat -0.015 | barasertib 0.008

GAB1 isoform 2 (UniProt Q13480)
inactive: [1] 0.049 | [2] -0.063 | [3] 0.037 | [4] -0.061 | Nexturastat A -0.051 | vemurafenib -0.151 | [5] -0.007 | [6] 0.011 | givinostat 0.052 | barasertib 0.067

GGA2 (UniProt Q9UJY4)
inactive: [1] -0.015 | [2] 0.033 | [3] -0.047 | [4] 0.06 | vemurafenib 0.053 | [5] 0.017 | [6] -0.059 | givinostat -0.03 | barasertib 0.051
active: Nexturastat A 0.582

GGNBP2 (UniProt Q9H3C7)
inactive: [1] 0.033 | [2] 0.046 | [3] -0.02 | [4] -0.032 | Nexturastat A 0.255 | vemurafenib -0.102 | [5] -0.078 | [6] -0.158 | givinostat 0.024 | barasertib -0.061

FXR2 (UniProt P51116)
inactive: [1] 0.013 | [2] 0.044 | [3] -0.104 | [4] 0.059 | Nexturastat A 0.373 | vemurafenib -0.037 | [5] 0.05 | [6] 0.139 | givinostat 0.099 | barasertib -0.071

FPGS (UniProt Q05932)
inactive: [1] -0.058 | [2] 0.132 | [3] 0.127 | [4] 0.008 | Nexturastat A 0.193 | vemurafenib 0.077 | [5] -0.078 | [6] 0.167 | givinostat -0.021 | barasertib 0.042

GDI1 (UniProt P31150)
inactive: [1] 0.007 | [2] 0.012 | [3] -0.003 | [4] 0.009 | Nexturastat A -0.051 | vemurafenib 0.015 | [5] -0.008 | [6] -0.027 | givinostat -0.032 | barasertib 0.012

— the supplement of paper PMC10849652
